# Some of the results follow.
# The chains behind the UniProt entries cited, without tags or fusion partners. Where a name states a change or a piece, a line headed by the entry shows the natural chain unless it says otherwise.
# UniProt P61018: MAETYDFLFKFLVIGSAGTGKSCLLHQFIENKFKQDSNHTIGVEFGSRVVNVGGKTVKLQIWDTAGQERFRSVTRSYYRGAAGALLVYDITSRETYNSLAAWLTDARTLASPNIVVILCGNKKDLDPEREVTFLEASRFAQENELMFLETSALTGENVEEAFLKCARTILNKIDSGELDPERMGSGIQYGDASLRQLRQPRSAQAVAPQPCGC
# UniProt P54136: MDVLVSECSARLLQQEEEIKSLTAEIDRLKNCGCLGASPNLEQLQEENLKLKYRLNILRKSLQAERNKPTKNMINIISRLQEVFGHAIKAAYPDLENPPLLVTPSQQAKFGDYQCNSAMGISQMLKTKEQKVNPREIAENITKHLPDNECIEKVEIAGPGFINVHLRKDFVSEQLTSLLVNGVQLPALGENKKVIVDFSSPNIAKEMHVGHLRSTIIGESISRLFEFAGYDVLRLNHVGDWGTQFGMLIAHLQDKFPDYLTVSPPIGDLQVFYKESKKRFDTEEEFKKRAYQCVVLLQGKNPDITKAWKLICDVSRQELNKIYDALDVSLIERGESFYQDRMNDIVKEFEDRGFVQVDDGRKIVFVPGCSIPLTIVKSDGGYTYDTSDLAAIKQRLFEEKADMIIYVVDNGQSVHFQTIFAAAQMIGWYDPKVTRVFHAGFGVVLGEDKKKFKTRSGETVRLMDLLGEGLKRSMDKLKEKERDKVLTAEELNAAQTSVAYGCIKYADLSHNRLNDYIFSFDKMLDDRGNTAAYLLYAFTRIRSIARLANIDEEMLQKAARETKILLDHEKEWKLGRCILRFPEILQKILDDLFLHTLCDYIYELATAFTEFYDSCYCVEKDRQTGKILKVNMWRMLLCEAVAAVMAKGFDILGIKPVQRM
# UniProt Q8TDY2, whole entry: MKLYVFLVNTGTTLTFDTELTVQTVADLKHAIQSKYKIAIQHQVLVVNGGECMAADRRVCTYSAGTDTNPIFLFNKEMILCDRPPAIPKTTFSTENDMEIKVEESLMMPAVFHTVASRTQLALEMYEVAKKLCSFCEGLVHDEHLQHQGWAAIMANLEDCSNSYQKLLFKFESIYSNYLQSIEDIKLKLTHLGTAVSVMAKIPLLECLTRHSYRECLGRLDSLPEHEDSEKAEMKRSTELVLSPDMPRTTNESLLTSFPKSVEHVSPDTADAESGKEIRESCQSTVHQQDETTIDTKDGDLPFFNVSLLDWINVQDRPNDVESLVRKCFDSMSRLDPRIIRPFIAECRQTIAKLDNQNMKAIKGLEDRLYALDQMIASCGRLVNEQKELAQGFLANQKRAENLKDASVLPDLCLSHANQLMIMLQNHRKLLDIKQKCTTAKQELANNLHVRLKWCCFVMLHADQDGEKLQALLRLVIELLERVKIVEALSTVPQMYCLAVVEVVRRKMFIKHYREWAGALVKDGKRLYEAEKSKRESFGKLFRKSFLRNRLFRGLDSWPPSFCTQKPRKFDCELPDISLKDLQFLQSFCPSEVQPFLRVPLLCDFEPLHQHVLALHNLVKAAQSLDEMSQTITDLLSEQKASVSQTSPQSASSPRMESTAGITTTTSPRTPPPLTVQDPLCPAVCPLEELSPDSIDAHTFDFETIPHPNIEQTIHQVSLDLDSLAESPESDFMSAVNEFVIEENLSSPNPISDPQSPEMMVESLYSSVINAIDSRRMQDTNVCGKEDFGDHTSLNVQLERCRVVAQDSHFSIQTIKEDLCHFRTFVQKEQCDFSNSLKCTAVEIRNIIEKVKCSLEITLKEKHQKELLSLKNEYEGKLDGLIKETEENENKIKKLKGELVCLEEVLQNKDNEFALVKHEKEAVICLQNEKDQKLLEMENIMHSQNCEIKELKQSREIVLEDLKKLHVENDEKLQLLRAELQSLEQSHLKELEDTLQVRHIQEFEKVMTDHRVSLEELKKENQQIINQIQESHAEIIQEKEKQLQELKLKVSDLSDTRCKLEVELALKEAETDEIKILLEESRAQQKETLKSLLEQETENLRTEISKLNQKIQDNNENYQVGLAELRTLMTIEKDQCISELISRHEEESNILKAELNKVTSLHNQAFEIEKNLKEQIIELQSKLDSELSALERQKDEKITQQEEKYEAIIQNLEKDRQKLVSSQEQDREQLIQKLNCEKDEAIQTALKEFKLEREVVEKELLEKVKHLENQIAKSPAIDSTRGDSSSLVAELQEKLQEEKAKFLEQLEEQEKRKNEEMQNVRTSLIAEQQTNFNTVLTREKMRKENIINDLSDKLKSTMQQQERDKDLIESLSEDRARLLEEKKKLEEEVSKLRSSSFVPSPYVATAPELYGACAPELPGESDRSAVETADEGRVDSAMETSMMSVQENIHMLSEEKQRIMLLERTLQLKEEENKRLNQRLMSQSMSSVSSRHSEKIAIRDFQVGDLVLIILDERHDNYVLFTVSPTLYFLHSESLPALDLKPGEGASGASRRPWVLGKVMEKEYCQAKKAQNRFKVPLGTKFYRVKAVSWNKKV
# UniProt O43665: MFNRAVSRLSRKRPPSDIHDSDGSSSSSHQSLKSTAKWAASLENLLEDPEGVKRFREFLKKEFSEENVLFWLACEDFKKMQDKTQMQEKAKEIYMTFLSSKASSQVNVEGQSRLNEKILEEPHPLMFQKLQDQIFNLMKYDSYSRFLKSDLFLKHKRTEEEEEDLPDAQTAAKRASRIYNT
# UniProt Q14761: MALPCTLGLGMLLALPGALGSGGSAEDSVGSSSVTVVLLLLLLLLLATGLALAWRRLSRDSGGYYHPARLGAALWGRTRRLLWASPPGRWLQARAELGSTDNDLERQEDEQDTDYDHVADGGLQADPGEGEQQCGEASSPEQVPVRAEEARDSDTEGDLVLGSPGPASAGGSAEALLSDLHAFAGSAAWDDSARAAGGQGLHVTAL
# UniProt Q9NWS8: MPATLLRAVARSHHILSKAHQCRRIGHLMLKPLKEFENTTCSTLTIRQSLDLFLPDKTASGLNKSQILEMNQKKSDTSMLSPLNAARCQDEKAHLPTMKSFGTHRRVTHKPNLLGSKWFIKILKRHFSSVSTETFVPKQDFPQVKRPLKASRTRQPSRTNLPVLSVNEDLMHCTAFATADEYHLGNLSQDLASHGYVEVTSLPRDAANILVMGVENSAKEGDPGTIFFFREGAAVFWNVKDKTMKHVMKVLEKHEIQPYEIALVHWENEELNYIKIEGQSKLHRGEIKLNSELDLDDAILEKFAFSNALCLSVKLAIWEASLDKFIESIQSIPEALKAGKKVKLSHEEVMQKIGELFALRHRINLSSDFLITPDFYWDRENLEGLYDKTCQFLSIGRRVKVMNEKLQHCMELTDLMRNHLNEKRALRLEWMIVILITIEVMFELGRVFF
# UniProt P54725: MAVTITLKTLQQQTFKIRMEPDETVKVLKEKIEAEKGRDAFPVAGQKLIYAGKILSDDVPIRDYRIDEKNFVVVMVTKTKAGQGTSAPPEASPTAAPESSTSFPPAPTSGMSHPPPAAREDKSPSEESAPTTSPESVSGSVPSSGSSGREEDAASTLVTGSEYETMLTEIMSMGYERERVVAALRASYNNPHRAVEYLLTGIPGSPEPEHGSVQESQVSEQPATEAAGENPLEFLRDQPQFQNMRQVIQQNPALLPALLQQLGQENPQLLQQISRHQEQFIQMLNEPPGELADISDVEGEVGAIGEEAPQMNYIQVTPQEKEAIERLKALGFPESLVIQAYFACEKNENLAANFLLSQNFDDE
# UniProt Q96I25: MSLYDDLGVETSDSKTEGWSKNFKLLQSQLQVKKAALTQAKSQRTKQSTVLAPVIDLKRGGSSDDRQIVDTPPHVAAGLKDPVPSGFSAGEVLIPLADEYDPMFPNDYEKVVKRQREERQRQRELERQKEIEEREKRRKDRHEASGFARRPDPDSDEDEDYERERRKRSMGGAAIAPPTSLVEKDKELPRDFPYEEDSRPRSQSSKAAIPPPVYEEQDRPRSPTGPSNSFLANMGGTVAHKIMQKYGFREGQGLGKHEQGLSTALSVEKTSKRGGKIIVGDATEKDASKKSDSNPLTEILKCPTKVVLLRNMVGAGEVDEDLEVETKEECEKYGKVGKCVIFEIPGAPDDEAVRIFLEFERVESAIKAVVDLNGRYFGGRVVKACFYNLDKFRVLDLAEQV
# UniProt Q9NPQ8: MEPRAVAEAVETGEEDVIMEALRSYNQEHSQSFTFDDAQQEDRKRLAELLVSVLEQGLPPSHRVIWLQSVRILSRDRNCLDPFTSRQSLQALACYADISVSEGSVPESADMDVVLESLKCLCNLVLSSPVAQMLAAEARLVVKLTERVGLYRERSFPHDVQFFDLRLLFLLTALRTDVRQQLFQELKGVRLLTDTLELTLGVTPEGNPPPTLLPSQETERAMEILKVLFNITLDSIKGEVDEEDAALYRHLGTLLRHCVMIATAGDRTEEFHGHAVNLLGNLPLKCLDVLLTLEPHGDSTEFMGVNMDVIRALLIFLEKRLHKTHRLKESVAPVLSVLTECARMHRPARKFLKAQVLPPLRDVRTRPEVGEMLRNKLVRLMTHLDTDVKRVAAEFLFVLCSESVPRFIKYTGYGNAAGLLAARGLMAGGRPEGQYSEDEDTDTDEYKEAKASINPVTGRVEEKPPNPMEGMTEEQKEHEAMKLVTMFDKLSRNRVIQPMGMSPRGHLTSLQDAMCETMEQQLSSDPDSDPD
# Compound: COc1ccc(Cn2ccc3cc(C)c(C(=O)NO)cc32)cc1
# Assay: dose-dependent thermal stabilisation call (2D-TPP, DLPTP, 10% FDR) (binary (1 = stabilised)); higher = stabilised by the compound
# Details: system: HL-60 intact cells; concentration range 0.04-10 µM
# Protocol: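 2D thermal proteome profiling in intact HL-60 cells treated with BRD-3811 (0, 0.04, 0.29, 2, 10 uM) for 90 min at 37 C, then heated 3 min at one of 12 temperatures (42-63.9 C). Soluble protein was quantified by TMT10 MS. The value is the DLPTP call of the paper: dose-dependent thermal stabilisation over all temperatures at 10% FDR (F-test of a dose-response against a flat model); one experiment, one call per tested protein.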
row,Target,dose-dependent thermal stabilisation call
1,RAB4B (UniProt P61018),inactive: 0
2,RARS (UniProt P54136),inactive: 0
3,RB1CC1 (UniProt Q8TDY2),inactive: 0
4,RGS10 (UniProt O43665),inactive: 0
5,PTPRCAP (UniProt Q14761),inactive: 0
6,RMND1 (UniProt Q9NWS8),inactive: 0
7,RAD23A (UniProt P54725),inactive: 0
8,RBM17 (UniProt Q96I25),inactive: 0
9,RIC8A (UniProt Q9NPQ8),inactive: 0

# An excerpt of these results, with tabs:
row	Target	dose-dependent thermal stabilisation call
6	RMND1 (UniProt Q9NWS8)	inactive: 0
7	RAD23A (UniProt P54725)	inactive: 0

# Source: the supplement of paper PMC7666118
